# From the supplement of paper PMC12819154, “High-throughput peptide-centric local stability assay extends protein–ligand identification to membrane proteins, tissues and bacteria” (Nature Structural & Molecular Biology, 2025)
# Protein sequences, listed by entry. Tags and fused reporters are not part of them. Lines headed by an entry give the natural chain unless they say otherwise; changes in a name come on top.
# UniProt Q8BTI8: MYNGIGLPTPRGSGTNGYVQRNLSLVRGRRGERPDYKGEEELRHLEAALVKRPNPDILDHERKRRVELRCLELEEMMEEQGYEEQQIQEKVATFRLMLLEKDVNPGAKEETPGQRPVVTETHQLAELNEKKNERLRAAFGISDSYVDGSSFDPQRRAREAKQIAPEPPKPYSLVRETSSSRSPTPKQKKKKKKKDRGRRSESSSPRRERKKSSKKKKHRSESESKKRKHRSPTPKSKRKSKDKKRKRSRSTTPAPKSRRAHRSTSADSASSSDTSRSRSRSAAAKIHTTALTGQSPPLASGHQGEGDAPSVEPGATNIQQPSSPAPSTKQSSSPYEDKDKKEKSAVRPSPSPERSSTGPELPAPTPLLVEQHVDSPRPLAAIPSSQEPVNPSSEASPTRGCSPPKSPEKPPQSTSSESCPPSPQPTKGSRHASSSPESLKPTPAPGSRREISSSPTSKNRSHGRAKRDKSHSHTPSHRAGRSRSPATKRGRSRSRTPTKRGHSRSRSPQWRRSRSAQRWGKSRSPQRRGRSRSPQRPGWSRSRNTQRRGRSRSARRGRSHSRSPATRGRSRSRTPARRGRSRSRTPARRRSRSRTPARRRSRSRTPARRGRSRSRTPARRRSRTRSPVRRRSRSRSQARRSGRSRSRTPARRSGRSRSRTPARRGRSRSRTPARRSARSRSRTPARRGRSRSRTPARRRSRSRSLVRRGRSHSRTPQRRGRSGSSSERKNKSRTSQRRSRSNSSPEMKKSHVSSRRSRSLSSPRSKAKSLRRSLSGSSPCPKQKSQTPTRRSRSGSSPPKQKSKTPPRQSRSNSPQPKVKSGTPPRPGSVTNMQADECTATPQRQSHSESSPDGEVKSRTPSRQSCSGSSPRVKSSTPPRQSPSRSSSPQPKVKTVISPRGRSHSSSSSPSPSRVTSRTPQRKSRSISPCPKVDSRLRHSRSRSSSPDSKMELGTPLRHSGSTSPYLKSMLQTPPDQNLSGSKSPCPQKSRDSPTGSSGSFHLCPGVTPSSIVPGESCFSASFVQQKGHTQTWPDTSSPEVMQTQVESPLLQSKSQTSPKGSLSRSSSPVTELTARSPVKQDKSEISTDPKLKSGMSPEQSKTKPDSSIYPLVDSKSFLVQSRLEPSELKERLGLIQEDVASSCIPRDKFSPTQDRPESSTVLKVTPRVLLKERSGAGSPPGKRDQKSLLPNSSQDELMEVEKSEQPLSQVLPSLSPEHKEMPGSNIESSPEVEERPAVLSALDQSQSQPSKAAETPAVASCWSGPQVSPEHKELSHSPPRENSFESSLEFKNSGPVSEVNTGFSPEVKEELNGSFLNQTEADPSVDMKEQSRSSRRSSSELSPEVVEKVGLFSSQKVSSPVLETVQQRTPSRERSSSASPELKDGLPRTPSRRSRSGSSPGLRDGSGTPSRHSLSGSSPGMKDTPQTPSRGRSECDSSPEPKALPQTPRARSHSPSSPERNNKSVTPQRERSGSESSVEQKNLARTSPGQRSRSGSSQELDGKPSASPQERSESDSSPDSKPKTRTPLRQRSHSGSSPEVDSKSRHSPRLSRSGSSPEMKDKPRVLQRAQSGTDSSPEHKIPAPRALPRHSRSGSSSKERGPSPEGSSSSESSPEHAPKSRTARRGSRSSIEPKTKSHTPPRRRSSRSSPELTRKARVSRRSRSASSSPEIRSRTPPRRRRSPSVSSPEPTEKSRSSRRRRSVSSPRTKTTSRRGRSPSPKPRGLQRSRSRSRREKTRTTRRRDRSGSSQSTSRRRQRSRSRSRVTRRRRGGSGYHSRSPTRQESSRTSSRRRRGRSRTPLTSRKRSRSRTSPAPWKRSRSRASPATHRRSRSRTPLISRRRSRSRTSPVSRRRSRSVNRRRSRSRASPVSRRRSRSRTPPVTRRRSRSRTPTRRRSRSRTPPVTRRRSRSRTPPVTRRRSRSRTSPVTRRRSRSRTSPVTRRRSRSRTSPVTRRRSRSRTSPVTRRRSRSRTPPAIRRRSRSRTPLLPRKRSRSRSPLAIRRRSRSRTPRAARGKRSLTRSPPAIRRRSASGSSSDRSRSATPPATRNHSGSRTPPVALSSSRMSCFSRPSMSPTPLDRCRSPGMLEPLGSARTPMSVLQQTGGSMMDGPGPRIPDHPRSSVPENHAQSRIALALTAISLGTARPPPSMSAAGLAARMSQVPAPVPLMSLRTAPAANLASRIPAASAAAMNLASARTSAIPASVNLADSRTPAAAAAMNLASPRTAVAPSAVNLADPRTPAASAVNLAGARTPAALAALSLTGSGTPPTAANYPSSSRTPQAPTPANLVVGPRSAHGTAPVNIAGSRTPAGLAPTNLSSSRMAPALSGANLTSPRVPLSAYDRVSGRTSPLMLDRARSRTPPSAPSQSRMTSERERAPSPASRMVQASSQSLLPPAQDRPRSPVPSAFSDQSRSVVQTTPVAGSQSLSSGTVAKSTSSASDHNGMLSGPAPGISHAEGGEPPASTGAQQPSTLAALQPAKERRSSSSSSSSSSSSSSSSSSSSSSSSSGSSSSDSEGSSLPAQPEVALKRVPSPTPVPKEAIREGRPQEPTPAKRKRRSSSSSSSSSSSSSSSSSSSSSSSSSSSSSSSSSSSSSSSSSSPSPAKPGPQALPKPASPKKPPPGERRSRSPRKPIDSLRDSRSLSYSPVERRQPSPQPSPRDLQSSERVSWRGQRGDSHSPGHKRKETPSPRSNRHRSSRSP
# UniProt Q8BIE6: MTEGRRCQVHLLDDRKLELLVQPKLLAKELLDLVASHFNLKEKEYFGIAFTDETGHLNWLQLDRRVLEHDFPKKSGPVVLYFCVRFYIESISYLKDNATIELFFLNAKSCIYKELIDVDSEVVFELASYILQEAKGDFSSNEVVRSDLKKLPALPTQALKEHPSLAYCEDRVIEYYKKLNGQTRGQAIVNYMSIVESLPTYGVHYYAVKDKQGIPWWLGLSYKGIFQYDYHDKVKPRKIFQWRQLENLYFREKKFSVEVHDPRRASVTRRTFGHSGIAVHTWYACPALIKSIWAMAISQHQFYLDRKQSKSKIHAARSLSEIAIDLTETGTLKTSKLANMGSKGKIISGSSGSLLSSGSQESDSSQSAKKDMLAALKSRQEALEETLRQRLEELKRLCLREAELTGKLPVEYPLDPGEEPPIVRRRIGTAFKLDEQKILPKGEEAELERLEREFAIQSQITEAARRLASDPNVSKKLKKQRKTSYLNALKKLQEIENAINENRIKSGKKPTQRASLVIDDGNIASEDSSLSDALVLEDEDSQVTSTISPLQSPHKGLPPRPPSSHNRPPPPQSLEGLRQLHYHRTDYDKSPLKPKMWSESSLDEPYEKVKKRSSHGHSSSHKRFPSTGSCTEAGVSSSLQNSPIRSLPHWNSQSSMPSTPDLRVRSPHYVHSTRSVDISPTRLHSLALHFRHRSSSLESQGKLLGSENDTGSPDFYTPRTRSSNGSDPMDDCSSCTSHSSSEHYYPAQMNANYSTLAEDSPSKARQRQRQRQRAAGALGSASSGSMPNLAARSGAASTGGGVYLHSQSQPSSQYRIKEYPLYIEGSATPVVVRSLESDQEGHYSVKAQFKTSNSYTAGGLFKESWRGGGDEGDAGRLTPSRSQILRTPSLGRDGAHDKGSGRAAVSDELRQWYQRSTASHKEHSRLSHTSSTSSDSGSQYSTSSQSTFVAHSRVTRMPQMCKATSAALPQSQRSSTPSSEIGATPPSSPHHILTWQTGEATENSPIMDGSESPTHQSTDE
# UniProt Q8BPT6: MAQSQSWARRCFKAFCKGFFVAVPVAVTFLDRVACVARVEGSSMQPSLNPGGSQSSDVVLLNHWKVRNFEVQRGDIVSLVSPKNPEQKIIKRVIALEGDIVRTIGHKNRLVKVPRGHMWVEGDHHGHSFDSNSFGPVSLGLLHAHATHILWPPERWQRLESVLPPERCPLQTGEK
# UniProt Q8BM39: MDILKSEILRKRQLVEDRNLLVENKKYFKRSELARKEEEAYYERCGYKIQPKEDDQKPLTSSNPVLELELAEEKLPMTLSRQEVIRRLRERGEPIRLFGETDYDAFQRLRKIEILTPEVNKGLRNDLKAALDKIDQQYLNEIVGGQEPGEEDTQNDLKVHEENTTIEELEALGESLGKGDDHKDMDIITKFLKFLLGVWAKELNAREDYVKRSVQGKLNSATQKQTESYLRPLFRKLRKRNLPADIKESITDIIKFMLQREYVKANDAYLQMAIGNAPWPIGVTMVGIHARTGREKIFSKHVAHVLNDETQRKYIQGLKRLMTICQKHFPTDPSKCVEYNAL
# UniProt Q8BL74: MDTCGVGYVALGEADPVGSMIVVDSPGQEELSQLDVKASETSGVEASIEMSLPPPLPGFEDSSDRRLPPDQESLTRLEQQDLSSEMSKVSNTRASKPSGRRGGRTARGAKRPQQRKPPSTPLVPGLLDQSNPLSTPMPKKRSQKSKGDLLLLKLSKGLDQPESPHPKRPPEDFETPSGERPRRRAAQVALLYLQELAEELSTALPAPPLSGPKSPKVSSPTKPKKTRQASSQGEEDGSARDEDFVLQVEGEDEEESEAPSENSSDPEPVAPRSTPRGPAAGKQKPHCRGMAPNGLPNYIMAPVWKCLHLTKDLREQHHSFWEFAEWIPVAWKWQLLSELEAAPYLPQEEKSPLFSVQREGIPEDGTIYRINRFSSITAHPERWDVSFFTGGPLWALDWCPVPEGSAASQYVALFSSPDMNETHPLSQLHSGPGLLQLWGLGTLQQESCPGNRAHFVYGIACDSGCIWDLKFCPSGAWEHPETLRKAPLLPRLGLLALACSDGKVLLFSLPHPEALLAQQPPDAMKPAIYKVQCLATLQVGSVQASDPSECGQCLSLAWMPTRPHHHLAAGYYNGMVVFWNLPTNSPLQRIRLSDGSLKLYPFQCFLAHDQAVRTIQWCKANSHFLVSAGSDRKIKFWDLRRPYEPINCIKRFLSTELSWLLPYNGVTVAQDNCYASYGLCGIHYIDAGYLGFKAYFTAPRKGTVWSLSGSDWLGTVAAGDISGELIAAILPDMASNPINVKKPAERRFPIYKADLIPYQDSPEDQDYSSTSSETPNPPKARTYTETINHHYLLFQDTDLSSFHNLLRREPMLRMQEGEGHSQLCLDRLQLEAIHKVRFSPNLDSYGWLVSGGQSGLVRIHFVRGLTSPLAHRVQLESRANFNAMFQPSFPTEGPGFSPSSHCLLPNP
# UniProt Q8BP71: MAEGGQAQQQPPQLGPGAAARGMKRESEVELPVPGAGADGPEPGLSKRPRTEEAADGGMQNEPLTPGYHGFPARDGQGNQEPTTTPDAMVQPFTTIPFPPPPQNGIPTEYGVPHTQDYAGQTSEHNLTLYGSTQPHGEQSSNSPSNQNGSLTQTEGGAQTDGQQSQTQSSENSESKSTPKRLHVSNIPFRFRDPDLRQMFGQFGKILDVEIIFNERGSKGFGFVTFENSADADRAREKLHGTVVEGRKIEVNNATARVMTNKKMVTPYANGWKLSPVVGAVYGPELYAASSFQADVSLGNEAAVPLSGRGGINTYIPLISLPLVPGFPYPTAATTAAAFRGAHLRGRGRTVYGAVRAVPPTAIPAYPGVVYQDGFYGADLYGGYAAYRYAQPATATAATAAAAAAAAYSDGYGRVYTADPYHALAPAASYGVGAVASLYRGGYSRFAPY
# UniProt Q8BPZ8: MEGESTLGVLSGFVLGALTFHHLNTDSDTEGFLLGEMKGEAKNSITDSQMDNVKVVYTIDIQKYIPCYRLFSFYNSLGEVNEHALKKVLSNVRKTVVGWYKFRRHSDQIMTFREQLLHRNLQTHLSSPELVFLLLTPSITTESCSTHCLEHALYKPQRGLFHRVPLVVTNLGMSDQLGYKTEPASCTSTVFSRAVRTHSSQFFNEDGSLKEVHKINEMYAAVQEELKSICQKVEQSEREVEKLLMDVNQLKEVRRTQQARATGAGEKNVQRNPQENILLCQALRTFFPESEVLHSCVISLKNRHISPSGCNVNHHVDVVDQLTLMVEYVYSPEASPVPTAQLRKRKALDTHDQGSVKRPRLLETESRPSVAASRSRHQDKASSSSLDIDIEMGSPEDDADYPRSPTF
# UniProt Q8BQX5: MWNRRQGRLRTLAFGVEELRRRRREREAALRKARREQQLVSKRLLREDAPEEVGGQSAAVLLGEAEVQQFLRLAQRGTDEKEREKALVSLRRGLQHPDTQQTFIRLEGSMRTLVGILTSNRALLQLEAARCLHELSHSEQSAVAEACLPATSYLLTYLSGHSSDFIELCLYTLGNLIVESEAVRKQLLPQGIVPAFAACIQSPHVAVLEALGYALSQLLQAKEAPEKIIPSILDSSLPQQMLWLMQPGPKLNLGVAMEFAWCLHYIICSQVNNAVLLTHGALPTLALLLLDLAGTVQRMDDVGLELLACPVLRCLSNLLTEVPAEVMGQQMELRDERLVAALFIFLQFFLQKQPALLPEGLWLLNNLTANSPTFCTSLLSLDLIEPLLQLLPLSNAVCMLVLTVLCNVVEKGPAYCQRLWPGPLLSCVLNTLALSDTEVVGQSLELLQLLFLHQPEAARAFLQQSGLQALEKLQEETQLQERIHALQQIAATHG
# The other results are listed elsewhere or left out. Small differences around the control level are noise.
# Compound: CN[C@@H]1C[C@H]2O[C@@](C)([C@@H]1OC)n1c3ccccc3c3c4c(c5c6ccccc6n2c5c31)C(=O)NC4 [staurosporine]
# Assay: log2 fold change of tryptic peptide abundance, ligand vs vehicle (limited proteolysis) (log2 ratio); higher = more trypsin-susceptible (destabilized)
# Conditions: ligand concentration: 20 uM; sample: mouse liver crude lysate; replicate design: treated separately
target,measurement,value
"UniProt Q8BMD5 (peptide sequence: FGELEGVRK, peptide start residue: 461)",log2 fold change,0.786
"UniProt Q8BR65 (peptide sequence: RPNDPVPIPDKR, peptide start residue: 188)",log2 fold change,0.178
"UniProt Q8BI71 (peptide sequence: VAEVETER, peptide start residue: 227)",log2 fold change,-0.307
"UniProt Q8BTI8 (peptide sequence: MVQASSQSLLPPAQDRPR, peptide start residue: 2386)",log2 fold change,-0.409
"UniProt Q8BL66 (peptide sequence: GKESVSLLEK, peptide start residue: 535)",log2 fold change,0.393
"UniProt Q8BK58 (peptide sequence: MLVCTLK, peptide start residue: 290)",log2 fold change,0.229
"UniProt Q8BIE6 (peptide sequence: TDYDKSPLKPK, peptide start residue: 585)",log2 fold change,-0.174
"UniProt Q8BM75 (peptide sequence: VSPMTMSGPK, peptide start residue: 957)",log2 fold change,0.224
"UniProt Q8BJM7 (peptide sequence: IFYGSQTGTAK, peptide start residue: 73)",log2 fold change,0.506
"UniProt Q8BP78 (peptide sequence: LGENDKTDLDVIR, peptide start residue: 98)",log2 fold change,-0.181
"UniProt Q8BKE9 (peptide sequence: EDNQEIASMER, peptide start residue: 314)",log2 fold change,-0.178
"UniProt Q8BK72 (peptide sequence: EKLPACEAEDLATYEQK, peptide start residue: 363)",log2 fold change,-0.421
"UniProt Q8BND5 (peptide sequence: DMQENAPGQQHLSK, peptide start residue: 636)",log2 fold change,0.432
"UniProt Q8BPT6 (peptide sequence: VIALEGDIVR, peptide start residue: 93)",log2 fold change,0.0917
"UniProt Q8BQM9 (peptide sequence: KKPQVNAK, peptide start residue: 92)",log2 fold change,0.086
"UniProt Q8BSE0 (peptide sequence: YCYTVSR, peptide start residue: 312)",log2 fold change,0.144
"UniProt Q8BV79 (peptide sequence: NEDGSLKR, peptide start residue: 1295)",log2 fold change,-0.258
"UniProt Q8BMP6 (peptide sequence: EWAALGNMSK, peptide start residue: 142)",log2 fold change,0.151
"UniProt Q8BLY7 (peptide sequence: TVGILQEAPVSLK, peptide start residue: 300)",log2 fold change,-0.407
"UniProt Q8BM39 (peptide sequence: KEEEAYYER, peptide start residue: 36)",log2 fold change,0.219
"UniProt Q8BRG6 (peptide sequence: FADTHSLK, peptide start residue: 174)",log2 fold change,0.245
"UniProt Q8BSS9 (peptide sequence: TGSLIEPTISR, peptide start residue: 536)",log2 fold change,0.423
"UniProt Q8BP48 (peptide sequence: LFHTAPNVPHYAK, peptide start residue: 299)",log2 fold change,0.195
"UniProt Q8BL80 (peptide sequence: YAMLEIKLR, peptide start residue: 653)",log2 fold change,-0.017
"UniProt Q8BL74 (peptide sequence: GLDQPESPHPK, peptide start residue: 157)",log2 fold change,0.0779
"UniProt Q8BT14 (peptide sequence: YPWMAFPR, peptide start residue: 498)",log2 fold change,0.397
"UniProt Q8BRN9 (peptide sequence: RQDLEQAK, peptide start residue: 547)",log2 fold change,-0.949
"UniProt Q8BK08 (peptide sequence: LPLHTLTSSTPVVLVR, peptide start residue: 144)",log2 fold change,0.242
"UniProt Q8BTN6 (peptide sequence: ISSVEEPR, peptide start residue: 255)",log2 fold change,0.109
"UniProt Q8BP71 (peptide sequence: EKLHGTVVEGR, peptide start residue: 237)",log2 fold change,0.325
"UniProt Q8BPZ8 (peptide sequence: ALDTHDQGSVK, peptide start residue: 347)",log2 fold change,-0.469
"UniProt Q8BR90 (peptide sequence: EQEWNTANAK, peptide start residue: 274)",log2 fold change,0.168
"UniProt Q8BQX5 (peptide sequence: ALLQLEAAR, peptide start residue: 122)",log2 fold change,-0.349
"UniProt Q8BK03 (peptide sequence: WLSDSFK, peptide start residue: 460)",log2 fold change,0.241
"UniProt Q8BQS5 (peptide sequence: LGCTRTPEPDIR, peptide start residue: 9)",log2 fold change,-0.194

# Taken from the listing (2 entries):
target,measurement,value
"UniProt Q8BK03 (peptide sequence: WLSDSFK, peptide start residue: 460)",log2 fold change,0.241
"UniProt Q8BQS5 (peptide sequence: LGCTRTPEPDIR, peptide start residue: 9)",log2 fold change,-0.194
